In paper PMC9042968:
These are yes or no findings as the source states them, for the method shown. In cells and extracts the contact can be indirect. Some results given as binding are weak or reduced against the parent protein; the word gives no strength.

The chains behind the UniProt entries cited, without tags or fusion partners. Residues count along the entry.
UniProt Q13586, residues 23-685: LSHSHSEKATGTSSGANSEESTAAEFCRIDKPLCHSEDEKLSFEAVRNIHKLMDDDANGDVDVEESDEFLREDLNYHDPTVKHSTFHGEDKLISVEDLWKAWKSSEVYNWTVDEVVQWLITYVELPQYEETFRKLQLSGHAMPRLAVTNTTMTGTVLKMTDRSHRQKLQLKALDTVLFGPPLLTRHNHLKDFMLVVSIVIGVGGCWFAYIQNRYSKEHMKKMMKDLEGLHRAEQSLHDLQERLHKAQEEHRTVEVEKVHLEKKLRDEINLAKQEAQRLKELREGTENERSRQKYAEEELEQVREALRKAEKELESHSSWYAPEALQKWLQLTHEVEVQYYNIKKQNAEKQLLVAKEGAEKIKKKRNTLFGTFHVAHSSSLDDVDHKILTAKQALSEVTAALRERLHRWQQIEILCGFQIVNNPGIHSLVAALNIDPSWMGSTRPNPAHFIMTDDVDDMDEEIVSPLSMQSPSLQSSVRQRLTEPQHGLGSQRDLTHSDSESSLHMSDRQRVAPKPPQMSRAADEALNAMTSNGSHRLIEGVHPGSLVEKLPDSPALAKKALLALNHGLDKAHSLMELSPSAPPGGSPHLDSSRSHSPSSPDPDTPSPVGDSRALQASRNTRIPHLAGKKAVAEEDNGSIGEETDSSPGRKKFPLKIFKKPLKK

Biological target: PKC-γ, full length, FLAG-tagged (UniProt P05129)
Test: co-IP; HEK293 cells co-transfected with myc-Stim1 and flag-tagged PKC-β or PKC-γ; lysis buffer with 1% NP 40 and protease cocktail; PKC precipitated, Stim1 detected

binding: binds
Substance: stromal interaction molecule 1 (Stim1), 3xmyc-tagged (from UniProt Q13586-1 23-685)
